Data taken from publication PMC10070477.
Results are given in words; binding and its absence hold for the method and conditions named. In cells and extracts the contact can be indirect. Some entries that bind do so weakly or less than the wild type.

Protein sequences, listed by entry. Tags and fused reporters are not part of them.
UniProt Q9BSK0: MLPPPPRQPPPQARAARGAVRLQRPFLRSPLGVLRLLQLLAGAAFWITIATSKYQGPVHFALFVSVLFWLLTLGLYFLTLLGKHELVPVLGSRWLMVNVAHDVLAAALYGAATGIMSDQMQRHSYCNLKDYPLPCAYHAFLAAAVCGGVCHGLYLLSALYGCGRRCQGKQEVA
UniProt P09874: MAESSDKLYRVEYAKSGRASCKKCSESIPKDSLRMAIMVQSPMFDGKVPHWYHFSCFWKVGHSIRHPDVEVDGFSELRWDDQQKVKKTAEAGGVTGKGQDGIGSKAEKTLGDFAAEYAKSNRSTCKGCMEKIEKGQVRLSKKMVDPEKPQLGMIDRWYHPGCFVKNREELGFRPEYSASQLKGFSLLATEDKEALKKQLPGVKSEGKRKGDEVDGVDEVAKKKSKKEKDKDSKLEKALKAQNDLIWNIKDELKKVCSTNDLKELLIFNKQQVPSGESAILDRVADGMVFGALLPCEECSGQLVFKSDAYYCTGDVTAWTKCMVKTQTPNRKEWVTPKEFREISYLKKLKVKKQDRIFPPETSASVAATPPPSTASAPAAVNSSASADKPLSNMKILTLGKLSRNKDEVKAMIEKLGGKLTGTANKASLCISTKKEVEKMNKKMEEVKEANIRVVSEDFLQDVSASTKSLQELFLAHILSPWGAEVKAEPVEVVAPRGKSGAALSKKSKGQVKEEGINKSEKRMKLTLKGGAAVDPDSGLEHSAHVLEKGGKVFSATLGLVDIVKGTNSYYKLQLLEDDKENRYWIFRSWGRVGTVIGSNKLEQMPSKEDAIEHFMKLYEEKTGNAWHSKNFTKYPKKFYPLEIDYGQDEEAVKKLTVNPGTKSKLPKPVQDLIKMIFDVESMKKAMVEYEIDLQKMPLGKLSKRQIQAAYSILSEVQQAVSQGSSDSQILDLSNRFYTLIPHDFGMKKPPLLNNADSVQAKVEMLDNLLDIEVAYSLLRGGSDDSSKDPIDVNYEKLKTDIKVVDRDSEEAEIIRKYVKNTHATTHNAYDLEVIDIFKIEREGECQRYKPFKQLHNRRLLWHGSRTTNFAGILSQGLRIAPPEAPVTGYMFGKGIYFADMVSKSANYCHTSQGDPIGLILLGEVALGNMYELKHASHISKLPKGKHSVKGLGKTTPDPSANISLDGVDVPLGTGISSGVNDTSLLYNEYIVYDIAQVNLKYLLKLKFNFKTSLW

How the values were obtained:
MARVELD1 = MARVELD1 (UniProt Q9BSK0); assay: co-IP; IP with IgG or the indicated antibody after 8 mM HU (HeLa) or 4 mM HU (HEK293T) for 24 h, Western blot; interaction enhanced by HU
PARP1-Flag = PARP1-Flag (UniProt P09874); assay: co-IP; HeLa and HEK293T cells transfected with the indicated recombinants, 48 h; reciprocal IP; in Fig. 5f with or without MARVELD1-V5

With “Poly(ADP-ribose) polymerase 1 (PARP1) (from UniProt P09874 1-1014)” the binding (MARVELD1) was “binds”.

With MARVELD1-V5 (from UniProt Q9BSK0 1-173) the binding (PARP1-Flag) was “binds”.
